Source: publication PMC11494200
Results are given in words; binding and its absence hold for the method and conditions named. Binding seen in cells or lysates may run through a third protein. A result given as binding can be weak or reduced; the word gives no strength. Tags and fused reporters may be left off the sequences shown.

Biological target: NUMB-FLAG (NUMB^WT-3FLAG, NUMB isoform 2; plasmid NUMB2-3FLAG-M107K) (human)
Experiment: co-IP; HEK293 lysate (1% TritonX-100, 10 mM HEPES pH 7.4, 142.5 mM KCl, 5 mM MgCl2, 1 mM EDTA, 10% glycerol); FLAG tag antibody and Protein G Sepharose beads overnight at 4 °C; immunoblot

binding: binds
B1: ABCG2-eGFP (plasmid ABCG2-eGFP-pcDNA3.1 + C-eGFP) (protein, UniProt Q9UNQ0 1-655)
chain: MSSSNVEVFIPVSQGNTNGFPATASNDLKAFTEGAVLSFHNICYRVKLKSGFLPCRKPVEKEILSNINGIMKPGLNAILGPTGGGKSSLLDVLAARKDPSGLSGDVLINGAPRPANFKCNSGYVVQDDVVMGTLTVRENLQFSAALRLATTMTNHEKNERINRVIQELGLDKVADSKVGTQFIRGVSGGERKRTSIGMELITDPSILFLDEPTTGLDSSTANAVLLLLKRMSKQGRTIIFSIHQPRYSIFKLFDSLTLLASGRLMFHGPAQEALGYFESAGYHCEAYNNPADFFLDIINGDSTAVALNREEDFKATEIIEPSKQDKPLIEKLAEIYVNSSFYKETKAELHQLSGGEKKKKITVFKEISYTTSFCHQLRWVSKRSFKNLLGNPQASIAQIIVTVVLGLVIGAIYFGLKNDSTGIQNRAGVLFFLTTNQCFSSVSAVELFVVEKKLFIHEYISGYYRVSSYFLGKLLSDLLPMRMLPSIIFTCIVYFMLGLKPKADAFFVMMFTLMMVAYSASSMALAIAAGQSVVSVATLLMTICFVFMMIFSGLLVNLTTIASWLSWLQYFSIPRYGFTALQHNEFLGQNFCPGLNATGNNPCNYATCTGEEYLVKQGIDLSPWGLWKNHVALACMIVIFLTIAYLKLLFLKKYS
